Where a name gives a salt, the structure may show the parent alone. Some of the results follow. Most entries show no effect beyond the scatter of the controls.
Columns and labels:
Settings in all cases: 5 µM; treatment: days 7-14 after plating, readout day 21
[1] = test system: hPSC-derived cortical neurons (WA09); experiment: nucleus area z-score vs screen plate; higher = larger nuclei (more mature)
[2] = test system: hPSC-derived cortical neurons (WA09); experiment: total neurite length per nucleus (MAP2) z-score; higher = more neurite growth
[3] = test system: hPSC-derived cortical neurons (WA09); experiment: nucleus roundness z-score vs screen plate; higher = rounder nuclei (more mature)
[4] = test system: hPSC-derived cortical neurons (WA09); experiment: KCl-induced FOS+/EGR-1+ double-positive nuclei fraction z-score (KCl minus unstimulated); higher = stronger activity-induced IEG response

SMILES	nucleus area z-score [1]	total neurite length per nucleus (z-score) [2]	nucleus roundness z-score [3]	KCl-induced FOS+/EGR-1+ double-positive nuclei fraction z-score [4]
Cc1cc(C2CCCCC2)n(O)c(=O)c1 [Ciclopirox ethanolamine]	-11.2	-5.13	-3.05	-0.129
CCS(=O)(=O)N1CCN(c2ccc(Nc3ncc(C(N)=O)c(NC4CC4)n3)cc2)CC1	5.24	5.17	1.7	0.683
CC(=O)N[C@H]1[C@H]([C@H](O)[C@H](O)CO)OC(C(=O)O)=C[C@@H]1NC(=N)N [Zanamivir]	-0.148	-0.0128	-0.0733	0.424
c1coc(CNc2ncnc3[nH]cnc23)c1 [Kinetin]	1.18	0.254	-1.25	-1.03
N[C@@H](CC(=O)N1CCn2c(nnc2C(F)(F)F)C1)Cc1cc(F)c(F)cc1F [Sitagliptin phosphate monohydrate]	-0.836	1.04	-0.914	-0.155
C[N+](C)(C)CC(O)CC(=O)[O-] (racemic) [DL-Carnitine HCl]	-0.537	0.169	0.22	0.129
NC(=O)N1CCC(CC(=O)N2CCC([C@H]3c4ncc(Br)cc4CCc4cc(Cl)cc(Br)c43)CC2)CC1 [Lonafarnib]	-1.28	0.621	1.33	0.256
CCOC(=O)c1ccc(NC2CCCCC2)c(N)c1 [Ferrostatin-1 (Fer-1)]	0.529	0.162	0.705	0.587
Clc1ccc(C(Cn2ccnc2)OCc2csc3c(Cl)cccc23)c(Cl)c1 (stereo not drawn) [Sertaconazole nitrate]	-1.17	-0.959	-0.424	-1.53
CCOC(=O)Nc1ccc(NCc2ccc(F)cc2)nc1N [Flupirtine maleate]	-0.0717	0.374	-0.0529	-0.191
CC1(C)[C@@H](O[C@H]2O[C@H](C(=O)O)[C@@H](O)[C@H](O)[C@H]2O[C@@H]2O[C@H](C(=O)O)[C@@H](O)[C@H](O)[C@H]2O)CC[C@]2(C)[C@H]3C(=O)C=C4[C@@H]5C[C@@](C)(C(=O)O)CC[C@]5(C)CC[C@@]4(C)[C@]3(C)CC[C@@H]12 [Ammonium Glycyrrhizinate]	0.405	0.312	-0.62	1.15
COc1ccc(C(=O)c2ccccc2O)c(O)c1 [2,2_-Dihydroxy-4-methoxybenzophenone]	0.437	0.744	0.859	0.649
Cc1cnc(NC(=O)C2=C(O)c3ccccc3S(=O)(=O)N2C)s1 [Meloxicam]	0.424	-0.204	0.426	0.189
CC(C)(Oc1ccc(CCNC(=O)c2ccc(Cl)cc2)cc1)C(=O)O [Bezafibrate]	0.456	-0.772	0.27	0.00866
Cc1[nH]c(/C=C2\C(=O)Nc3ccccc32)c(C)c1CCC(=O)O [TSU-68 (SU6668_ Orantinib)]	0.109	0.411	0.315	0.836
C[N+](C)(C)CCOC(=O)CCC(=O)OCC[N+](C)(C)C [Succinylcholine Chloride Dihydrate]	-0.0246	0.887	0.804	0.896

SMILES	nucleus area z-score [1]	total neurite length per nucleus (z-score) [2]	nucleus roundness z-score [3]	KCl-induced FOS+/EGR-1+ double-positive nuclei fraction z-score [4]
CCCc1cc2c(N3CCN(C4=NCC(C)(C)S4)CC3)ncnc2s1 [MI-2 (Menin-MLL Inhibitor)]	-4.08	-3.46	-4.33	-2.07
Cn1cnc2c(F)c(Nc3ccc(Br)cc3F)c(C(=O)NOCCO)cc21	0.506	-0.0393	0.298	0.0105
CCCCCCCCCCCCc1ccc(S(=O)(=O)Nc2nncs2)cc1	-0.138	1.31	0.165	-0.635
Cc1ccc(NC(=O)c2cccc(N(C)C)c2)cc1NC(=O)c1ccc(O)cc1	1.53	2.55	2.53	1.64
O=c1ccc2ccc(O)c(O)c2o1 [Daphnetin]	-3.77	-0.673	1.38	-0.128
CCCC(=O)Nc1cccc(NC(=O)c2ccccc2Br)c1	0.654	-0.0952	-0.174	1.85
CCCCCCCCCC(=O)N[C@H]1[C@H](Oc2c3cc4cc2Oc2ccc(cc2Cl)[C@@H](O[C@@H]2O[C@H](CO)[C@@H](O)[C@H](O)[C@H]2NC(C)=O)[C@@H]2NC(=O)[C@H](NC(=O)[C@@H]4NC(=O)[C@H]4NC(=O)[C@@H](Cc5ccc(c(Cl)c5)O3)NC(=O)[C@H](N)c3ccc(O)c(c3)Oc3cc(O)cc4c3)c3ccc(O)c(c3)-c3c(OC4O[C@H](CO)[C@@H](O)[C@H](O)[C@@H]4O)cc(O)cc3[C@@H](C(=O)O)NC2=O)O[C@H](CO)[C@@H](O)[C@@H]1O (stereo partly drawn) [Teicoplanin]	2.37	0.107	0.644	1.2
CCc1cccc2c3c([nH]c12)C(CC)(CC(=O)O)OCC3 (stereo not drawn) [Etodolac]	0.221	-0.0948	0.482	0.587
c1ccc2c(CCNc3ccc(Nc4ccncc4)cc3)c[nH]c2c1	-0.00744	1.42	-2.44	0.866
Clc1ccc(Nc2nnc(Cc3ccncc3)c3ccccc23)cc1 [Vatalanib (PTK787) 2HCl]	0.0506	-0.0301	0.0106	0.339
C[C@H]1c2cccc(O)c2C(=O)C2=C(O)[C@]3(O)C(=O)C(C(N)=O)=C(O)[C@@H](N(C)C)[C@@H]3[C@@H](O)[C@@H]21 [Doxycycline Hyclate]	2.8	-1.3	-1.38	-1.14
O=S(=O)(NCCSSCCNS(=O)(=O)c1cc(Cl)ccc1Cl)c1cc(Cl)ccc1Cl	0.31	-0.72	-0.98	-0.101
COc1c2occc2cc2ccc(=O)oc12 [Methoxsalen]	-0.388	0.513	-1.7	-0.333
CCCCCCCCCCCCCCCC[N+](C)(C)C [Cetrimonium Bromide (CTAB)]	-18	-6.19	-5.6	-2.04
NC[C@@](O)(c1ccc(Cl)cc1)c1ccc(-c2cn[nH]c2)cc1	0.25	-1.88	0.301	-1.14
N#CC(=C(/N)Sc1ccccc1N)/C(C#N)=C(\N)Sc1ccccc1N	-0.169	-0.234	-0.0467	-0.51

Only nucleus roundness z-score [3], KCl-induced FOS+/EGR-1+ double-positive nuclei fraction z-score [4] and total neurite length per nucleus (z-score) [2] (two entries from above):
SMILES | nucleus roundness z-score [3] | KCl-induced FOS+/EGR-1+ double-positive nuclei fraction z-score [4] | total neurite length per nucleus (z-score) [2]
O=S(=O)(NCCSSCCNS(=O)(=O)c1cc(Cl)ccc1Cl)c1cc(Cl)ccc1Cl | -0.98 | -0.101 | -0.72
COc1c2occc2cc2ccc(=O)oc12 [Methoxsalen] | -1.7 | -0.333 | 0.513
